For at least one entry, the source does not settle the construct or the ends of the probe. For part of these data: A negative result means that nothing was seen under these conditions. For part of these data: Protein sequences can lack the tags named with them. For part of these data: A weaker result is weaker than the reference pair of the same experiment. For part of these data: At least one verdict was read from the data and is not stated in words by the source.
Columns and labels:
Assay in all cases: EMSA
Topo IIIα (Homo sapiens) = Topo IIIα (Homo sapiens) (UniProt Q13472); conditions: 25-100 nM protein, streptavidin on both ends, shift only at highest concentration; 5' biotin on both strands (PSOL7475, PSOL6214), streptavidin bound; EMSA: 35 mM Tris-HCl pH 7.5, 1 mM DTT, 100 ng/μl BSA, 2 mM MgCl2, 100 mM NaCl, 25°C, 20 min, 5 nM DNA ends (Mg2+ and ATP omitted in Figure 3B); recombinant protein; label: 32P
BLM (Homo sapiens) = BLM (Homo sapiens) (UniProt P54132); conditions: 7.5-15 nM BLM, no ATP, no Mg2+; EMSA: 35 mM Tris-HCl pH 7.5, 1 mM DTT, 100 ng/μl BSA, 2 mM MgCl2, 100 mM NaCl, 25°C, 20 min, 5 nM DNA ends (Mg2+ and ATP omitted in Figure 3B); recombinant protein; label: 32P
[1] = target: T1, DNA2-D277A (Homo sapiens) (UniProt P51530); conditions: 10-20 nM DNA2-D277A alone, no ATP, no Mg2+; EMSA: 35 mM Tris-HCl pH 7.5, 1 mM DTT, 100 ng/μl BSA, 2 mM MgCl2, 100 mM NaCl, 25°C, 20 min, 5 nM DNA ends (Mg2+ and ATP omitted in Figure 3B); recombinant protein; protein details: C-terminal Flag (pFastBacHTB vector); label: 32P
T1 sequence (looked up, limits assumed): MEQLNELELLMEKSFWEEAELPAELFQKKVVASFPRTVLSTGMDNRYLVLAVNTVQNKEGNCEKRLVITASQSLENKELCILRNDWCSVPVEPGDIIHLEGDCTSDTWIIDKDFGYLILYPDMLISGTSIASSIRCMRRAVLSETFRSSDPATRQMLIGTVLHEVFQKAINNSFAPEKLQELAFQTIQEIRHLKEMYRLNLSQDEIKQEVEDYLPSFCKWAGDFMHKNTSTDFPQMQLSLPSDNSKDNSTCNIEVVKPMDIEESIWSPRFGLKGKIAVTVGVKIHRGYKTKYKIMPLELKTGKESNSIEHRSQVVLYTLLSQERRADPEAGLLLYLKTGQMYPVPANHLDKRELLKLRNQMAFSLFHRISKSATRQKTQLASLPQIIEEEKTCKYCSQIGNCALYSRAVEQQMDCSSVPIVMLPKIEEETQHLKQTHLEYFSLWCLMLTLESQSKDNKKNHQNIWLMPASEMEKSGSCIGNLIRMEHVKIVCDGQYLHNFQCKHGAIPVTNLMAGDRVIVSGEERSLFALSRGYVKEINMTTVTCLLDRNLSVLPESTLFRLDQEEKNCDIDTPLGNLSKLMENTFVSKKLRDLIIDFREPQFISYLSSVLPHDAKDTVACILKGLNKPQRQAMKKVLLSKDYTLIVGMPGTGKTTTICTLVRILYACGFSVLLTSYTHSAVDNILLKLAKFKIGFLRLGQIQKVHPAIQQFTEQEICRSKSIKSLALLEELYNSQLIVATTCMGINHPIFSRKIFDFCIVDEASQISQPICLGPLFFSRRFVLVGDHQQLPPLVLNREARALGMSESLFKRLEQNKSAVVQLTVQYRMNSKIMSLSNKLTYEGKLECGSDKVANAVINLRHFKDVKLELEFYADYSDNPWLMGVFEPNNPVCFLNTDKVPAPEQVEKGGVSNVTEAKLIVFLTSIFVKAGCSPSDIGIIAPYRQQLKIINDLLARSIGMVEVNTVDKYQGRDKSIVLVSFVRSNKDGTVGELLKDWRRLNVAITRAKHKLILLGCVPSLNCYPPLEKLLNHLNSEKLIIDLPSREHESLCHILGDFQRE

Protein sequences, listed by entry. Tags and fused reporters are not part of them. Lines headed by an entry give the natural chain unless they say otherwise; changes in a name come on top.
UniProt Q13472: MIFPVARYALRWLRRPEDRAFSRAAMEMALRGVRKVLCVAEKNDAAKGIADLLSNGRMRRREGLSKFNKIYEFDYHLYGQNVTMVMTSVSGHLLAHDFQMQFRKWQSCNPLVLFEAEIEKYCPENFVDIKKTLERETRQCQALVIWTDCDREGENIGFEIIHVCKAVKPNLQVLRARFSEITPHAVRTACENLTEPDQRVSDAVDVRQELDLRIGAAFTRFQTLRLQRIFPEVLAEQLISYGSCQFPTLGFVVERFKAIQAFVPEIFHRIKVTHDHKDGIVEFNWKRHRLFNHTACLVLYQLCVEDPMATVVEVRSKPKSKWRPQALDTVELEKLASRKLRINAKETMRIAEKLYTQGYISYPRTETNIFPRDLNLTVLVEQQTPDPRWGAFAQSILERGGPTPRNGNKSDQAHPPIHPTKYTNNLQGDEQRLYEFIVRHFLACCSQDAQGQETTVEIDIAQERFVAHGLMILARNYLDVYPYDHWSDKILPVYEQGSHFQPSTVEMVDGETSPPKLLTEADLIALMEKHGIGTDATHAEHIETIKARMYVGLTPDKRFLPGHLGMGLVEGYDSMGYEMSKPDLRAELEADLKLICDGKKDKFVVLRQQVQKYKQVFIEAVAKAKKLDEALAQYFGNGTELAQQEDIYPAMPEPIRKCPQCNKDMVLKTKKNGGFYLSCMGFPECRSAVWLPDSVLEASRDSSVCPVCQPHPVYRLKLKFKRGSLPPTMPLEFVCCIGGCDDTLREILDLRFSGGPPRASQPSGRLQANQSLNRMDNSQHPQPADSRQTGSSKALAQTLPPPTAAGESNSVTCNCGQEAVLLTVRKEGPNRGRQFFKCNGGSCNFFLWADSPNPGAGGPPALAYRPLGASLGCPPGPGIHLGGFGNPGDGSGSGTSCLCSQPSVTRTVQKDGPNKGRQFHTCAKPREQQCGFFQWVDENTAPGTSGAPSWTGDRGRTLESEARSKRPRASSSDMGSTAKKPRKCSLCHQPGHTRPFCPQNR
UniProt P54132: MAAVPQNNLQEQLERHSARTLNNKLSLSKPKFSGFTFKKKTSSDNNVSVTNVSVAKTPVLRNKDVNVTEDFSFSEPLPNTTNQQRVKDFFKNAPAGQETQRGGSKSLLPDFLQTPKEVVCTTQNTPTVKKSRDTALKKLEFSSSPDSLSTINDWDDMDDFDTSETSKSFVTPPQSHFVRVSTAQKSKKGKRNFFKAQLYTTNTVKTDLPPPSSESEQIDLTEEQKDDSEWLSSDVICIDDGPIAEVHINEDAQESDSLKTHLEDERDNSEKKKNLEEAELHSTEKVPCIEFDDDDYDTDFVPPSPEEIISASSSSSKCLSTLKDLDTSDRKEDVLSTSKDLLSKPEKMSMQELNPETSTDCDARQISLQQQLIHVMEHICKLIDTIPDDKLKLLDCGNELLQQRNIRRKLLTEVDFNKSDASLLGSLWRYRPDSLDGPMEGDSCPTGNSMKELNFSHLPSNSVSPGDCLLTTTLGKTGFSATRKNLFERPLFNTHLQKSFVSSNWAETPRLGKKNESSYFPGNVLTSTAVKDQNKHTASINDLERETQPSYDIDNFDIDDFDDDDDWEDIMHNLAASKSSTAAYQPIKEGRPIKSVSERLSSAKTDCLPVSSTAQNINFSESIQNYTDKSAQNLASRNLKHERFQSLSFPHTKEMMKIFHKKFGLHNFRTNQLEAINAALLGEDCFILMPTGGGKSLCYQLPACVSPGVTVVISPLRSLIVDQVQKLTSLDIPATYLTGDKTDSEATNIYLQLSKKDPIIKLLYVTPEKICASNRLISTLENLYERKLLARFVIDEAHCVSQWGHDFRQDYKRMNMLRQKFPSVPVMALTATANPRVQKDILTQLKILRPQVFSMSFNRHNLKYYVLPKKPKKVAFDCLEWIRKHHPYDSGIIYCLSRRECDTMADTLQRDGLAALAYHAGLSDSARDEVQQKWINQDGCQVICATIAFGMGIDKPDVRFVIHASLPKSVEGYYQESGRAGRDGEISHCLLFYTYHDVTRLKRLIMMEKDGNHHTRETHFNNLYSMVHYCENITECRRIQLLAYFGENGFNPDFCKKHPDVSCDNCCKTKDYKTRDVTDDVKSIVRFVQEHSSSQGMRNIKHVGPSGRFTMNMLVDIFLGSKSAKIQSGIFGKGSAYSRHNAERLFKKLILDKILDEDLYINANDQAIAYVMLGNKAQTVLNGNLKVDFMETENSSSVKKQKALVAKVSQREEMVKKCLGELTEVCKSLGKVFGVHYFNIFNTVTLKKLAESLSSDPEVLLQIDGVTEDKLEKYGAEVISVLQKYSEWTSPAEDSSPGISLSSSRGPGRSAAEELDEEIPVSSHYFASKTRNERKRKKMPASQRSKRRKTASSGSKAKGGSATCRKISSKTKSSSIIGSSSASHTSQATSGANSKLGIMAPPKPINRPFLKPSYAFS

Sequence | binding result (Topo IIIα (Homo sapiens)) | binding result (BLM (Homo sapiens)) | binding result [1]
TTGATAAGAGGTCATTTGAATTCATGGCTTAGAGCTTAATTGCTGAATCTGGTGCTGGGATCCAACATGTTTTAAATATG (double strand) [80-mer dsDNA, both ends blocked by biotin-streptavidin] | binds more weakly | – | –
TTGATAAGAGGTCATTTGAATTCATGGCTTAGAGCTTAATTGCTGAATCTGGTGCTGGGATCCAACATGTTTTAAATATG (double strand) [80-mer dsDNA] | – | binds | no binding

From publication PMC4176181
